Experimental data: PubChem BioAssay AID504774 (Drosophila RNAi Screening Center, 2011)

Test: 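Genes required for cells to withstand methyl methanesulphonate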 (primary screen)
Cells: Drosophila Kc167 cells
Knock-down reagent: long dsRNA against Drosophila genes, about 0.25 µg dsRNA per well
Timing: about 6 days: 3 days knock-down, then 3 days with or without MMS
Treatment: methyl methanesulphonate 0.004% (w/v) for 3 days after knock-down
Detection: 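ATP-dependent luminescence as a measure of live cells in MMS-exposed wells, quantile normalised within each plate, with replicate values also given as a mean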
Direction: mean viability with MMS and viability with MMS: higher = more surviving cells after MMS
The deposit covers about 23,000 reagents; this is a random part of those with a known target gene and a result. 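Values are quantile-normalised luminescence on an arbitrary scale; higher means more cells surviving MMS.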 Names joined by + are all predicted targets of the reagent. Not all columns of the deposit are shown. No sequences are given here.

mspo (M-spondin) [DRSC07652]
- mean viability with MMS: 3.51e6
- viability with MMS, replicate 1: 4.03e6

p120ctn (p120 catenin) [DRSC07753]
- mean viability with MMS: 3.54e6
- viability with MMS, replicate 1: 4.05e6

CG15701 [DRSC06572]
- mean viability with MMS: 3.46e6
- viability with MMS, replicate 1: 3.91e6

CG12942 [DRSC06253]
- mean viability with MMS: 3.47e6
- viability with MMS, replicate 1: 3.96e6

CG13700 [DRSC10049]
- mean viability with MMS: 3.61e6
- viability with MMS, replicate 1: 4.13e6

dom (domino) [DRSC04558]
- mean viability with MMS: 3.10e6
- viability with MMS, replicate 1: 3.61e6

dom (domino) [DRSC04559]
- mean viability with MMS: 3.31e6
- viability with MMS, replicate 1: 3.72e6

RpS8 (Ribosomal protein S8) [DRSC16318]
- mean viability with MMS: 2.84e6
- viability with MMS, replicate 1: 3.53e6

Nhe1 (Na[+]/H[+] hydrogen exchanger 1) [DRSC00762]
- mean viability with MMS: 3.36e6
- viability with MMS, replicate 1: 3.65e6

IntS3 (Integrator 3) [DRSC21215]
- mean viability with MMS: 3.46e6
- viability with MMS, replicate 1: 3.90e6

Hrs (Hepatocyte growth factor regulated tyrosine kinase substrate) [DRSC00549]
- mean viability with MMS: 3.44e6
- viability with MMS, replicate 1: 3.88e6

CG31380 [DRSC15688]
- mean viability with MMS: 3.81e6
- viability with MMS, replicate 1: 4.32e6

The list goes on; the last 2 above are carried over.
Hrs (Hepatocyte growth factor regulated tyrosine kinase substrate) [DRSC00549]
- mean viability with MMS: 3.44e6
- viability with MMS, replicate 1: 3.88e6

CG31380 [DRSC15688]
- mean viability with MMS: 3.81e6
- viability with MMS, replicate 1: 4.32e6

Pstk + CG14210 + Tim9b [DRSC19566]
- mean viability with MMS: 3.38e6
- viability with MMS, replicate 1: 3.81e6

CG15861 [DRSC04274]
- mean viability with MMS: 3.48e6
- viability with MMS, replicate 1: 3.87e6

betaNACtes4 (Nascent-associated complex beta-subunit-like, testis 4) [DRSC19801]
- mean viability with MMS: 3.69e6
- viability with MMS, replicate 1: 4.12e6

beta-Spec (beta Spectrin) [DRSC20311]
- mean viability with MMS: 3.62e6
- viability with MMS, replicate 1: 4.11e6

wdn (wings down) [DRSC17095]
- mean viability with MMS: 3.48e6
- viability with MMS, replicate 1: 3.98e6

CG32091 [DRSC10141]
- mean viability with MMS: 3.60e6
- viability with MMS, replicate 1: 4.21e6

CG32091 [DRSC10820]
- mean viability with MMS: 3.49e6
- viability with MMS, replicate 1: 4.00e6

CG42337 [DRSC11686]
- mean viability with MMS: 3.45e6
- viability with MMS, replicate 1: 3.85e6

CG42337 [DRSC11687]
- mean viability with MMS: 2.91e6
- viability with MMS, replicate 1: 3.54e6

CG42337 [DRSC23099]
- mean viability with MMS: 3.54e6
- viability with MMS, replicate 1: 3.86e6

l(2)05714 (lethal (2) 05714) [DRSC03118]
- mean viability with MMS: 3.57e6
- viability with MMS, replicate 1: 4.21e6

Obp83a (Odorant-binding protein 83a) [DRSC12362]
- mean viability with MMS: 3.48e6
- viability with MMS, replicate 1: 3.96e6
